# According to article PMC4655838, “Versatility in phospho-dependent molecular recognition of the XRCC1 and XRCC4 DNA-damage scaffolds by aprataxin-family FHA domains” (DNA Repair, 2015):
# These are yes or no findings as the source states them, for the method shown. Binding calls can cover weak binding; strength is not graded here.
# Biological target: aprataxin FHA domain (residues 1-105)
# Assay: ITC; peptide injected (30 x 10 ul) into FHA domain in the cell; 22 °C; 50 mM HEPES pH 7.5, 150 mM NaCl, 5 mM β-mercaptoethanol; XRCC1 peptides 1 mM into 100 μM protein, XRCC4 peptides 300 μM into 30 μM protein; single-site binding model; both purified
row,Binder,binding
1,YAGSTDENTDSEEHQ (phosphothreonine at 519; C-terminal amide) [XRCC1 515-529 peptide phosphorylated on Thr519],binds
2,YAGSTDENTDSEEHQ (phosphothreonine at 523; C-terminal amide) [XRCC1 515-529 peptide phosphorylated solely on Thr523],binds
3,YDESTDEES (phosphothreonine at 233; C-terminal amide) [XRCC4 229-237 peptide phosphorylated on Thr233],binds
4,YAGSTDENTDSEEHQ (phosphoserine at 518; phosphothreonine at 519; C-terminal amide) [XRCC1 515-529 peptide phosphorylated on Ser518 and Thr519],binds
5,YDESTDEES (phosphoserine at 232; phosphothreonine at 233; C-terminal amide) [XRCC4 229-237 peptide phosphorylated on Ser232 and Thr233],binds

# Biological target: aprataxin FHA domain R42A (residues 1-105)
# Assay: as above
row,Binder,binding
1,YAGSTDENTDSEEHQ (phosphoserine at 518; phosphothreonine at 519; C-terminal amide) [XRCC1 515-529 peptide phosphorylated on Ser518 and Thr519],binds
